The source of these data is patent US20200109198A1.

By UniProt entry, the sequences of proteins in these tests, tags left out. Where a name states a change or a piece, a line headed by the entry shows the natural chain unless it says otherwise.
UniProt P11912: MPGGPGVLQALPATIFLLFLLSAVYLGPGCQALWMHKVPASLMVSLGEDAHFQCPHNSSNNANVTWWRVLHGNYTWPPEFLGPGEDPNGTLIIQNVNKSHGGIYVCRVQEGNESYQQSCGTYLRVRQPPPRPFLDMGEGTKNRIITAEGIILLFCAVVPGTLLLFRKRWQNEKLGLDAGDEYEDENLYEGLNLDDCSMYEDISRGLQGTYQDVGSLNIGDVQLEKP

Results are given in words; binding and its absence hold for the method and conditions named. Some binding calls cover weakened binding; strength is not graded here.

For test [1], the target named is CD79 (UniProt P11912). Description: competition ELISA of phage display clones, compared with parent H1L2.
Test [2] addresses CD79 (UniProt P11912). In words: confirmatory dilution ELISA of phage display clones. (In general: An ELISA detects its analyte on a solid surface through an enzyme-linked reagent.)
The target of test [3] is CD79 (UniProt P11912). In words: binding kinetics.
Test [4] addresses CD79 (UniProt P11912). Description: binding kinetics of full length IgG, Table 2.
Test [5] addresses CD79 (UniProt P11912). Description: antigen binding kinetics, Table 3.

B1: phage display clone LB511-B6 (antibody, V domains shown)
VH: QVQLVQSGAEVKKPGASVKVSCKASGYAFSYSWMNWVRQAPGQGLEWMGRIYPENGDTNYNGKFKGRVTMTRDTSISTAYMELSRLRSDDTAVYYCARWVYGYPHFDYWGQGTLVTVSS
VL: DVVMTQSPLSLPVTLGQPASISCKSSQSLLDSDGKTYLNWLQQRPGQSPRRLIYLVSKLDSGVPDRFSGSGSGTDFTLKISRVEAEDVGVYYCWQGTHVPFTFGGGTKVEIK
B1: the binding entry in test [1] and in test [2] was “binds” throughout.

B2: affinity matured antibody LB495/521 (antibody, V domains shown)
VH: QVQLVQSGAEVKKPGASVKVSCKASGYAFSYSWMNWVRQAPGQGLEWMGRIYPENGDTNYNGKFKGRVTMTRDTSISTAYMELSRLRSDDTAVYYCARWVYGYPHFDYWGQGTLVTVSS
VL: DVVMTQSPLSLPVTLGQPASISCKSSQSLLDSDGKTYLNWLQQRPGQSPRRLIYLVSKLDSGVPDRFSGSGSGTDFTLKISRVEAEDVGVYYCWQGTHVPFTFGGGTKVEIK
For the molecule B2, the binding result in test [3] and in test [4] was “binds” in each case.

B3: affinity matured antibody LB517/518 (antibody, V domains shown)
VH: QVQLVQSGAEVKKPGASVKVSCKASGYAFSYSWMNWVRQAPGQGLEWMGRIYPENGDTNYNGKFKGRVTMTRDTSISTAYMELSRLRSDDTAVYYCARWVYGLPHFDYWGQGTLVTVSS
VL: DVVMTQSPLSLPVTLGQPASISCKSSQSLLDSDGKTYLNWLQQRPGQSPRRLIYLVSKLDSGVPDRFSGSGSGTDFTLKISRVEAEDVGVYYCWQGTHIPFTFGGGTKVEIK
With B3, the binding entry in test [3] and in test [4] was “binds” each time.

B4: affinity matured antibody LB495/518 (antibody, V domains shown)
VH: QVQLVQSGAEVKKPGASVKVSCKASGYAFSYSWMNWVRQAPGQGLEWMGRIYPENGDTNYNGKFKGRVTMTRDTSISTAYMELSRLRSDDTAVYYCARWVYGYPHFDYWGQGTLVTVSS
VL: DVVMTQSPLSLPVTLGQPASISCKSSQSLLDSDGKTYLNWLQQRPGQSPRRLIYLVSKLDSGVPDRFSGSGSGTDFTLKISRVEAEDVGVYYCWQGTHIPFTFGGGTKVEIK
On to B4, for which the binding result in test [3] and in test [4] was “binds” throughout.

B5: phage display clone LB511-F6 (antibody, V domains shown)
VH: QVQLVQSGAEVKKPGASVKVSCKASGYAFSYSWMNWVRQAPGQGLEWMGRIYPENGDTNYNGKFKGRVTMTRDTSISTAYMELSRLRSDDTAVYYCARWVYGYPHFDYWGQGTLVTVSS
VL: DVVMTQSPLSLPVTLGQPASISCKSSQSLLDSDGKTYLNWLQQRPGQSPRRLIYLVSKLDSGVPDRFSGSGSGTDFTLKISRVEAEDVGVYYCWQGTHLPFTFGGGTKVEIK
Take B5: the binding entry in test [1] and in test [2] was “binds” in each case.

B6: engineered antibody LB632/519 (antibody, V domains shown)
VH: QVQLVQSGAEVKKPGASVKVSCKASGYAFSYSWMNWVRQAPGQGLEWMGRIYPESGDTNYAGKFKGRVTMTRDTSISTAYMELSRLRSDDTAVYYCARWVYGLPHFDYWGQGTLVTVSS
VL: DVVMTQSPLSLPVTLGQPASISCKSSQSLLDSDGKTYLNWLQQRPGQSPRRLIYLVSKLDSGVPDRFSGSGSGTDFTLKISRVEAEDVGVYYCWQGTHLPFTFGGGTKVEIK
Turning to B6, the binding result in test [5] is given as “binds”.

B7: affinity matured antibody LB517/520 (antibody, V domains shown)
VH: QVQLVQSGAEVKKPGASVKVSCKASGYAFSYSWMNWVRQAPGQGLEWMGRIYPENGDTNYNGKFKGRVTMTRDTSISTAYMELSRLRSDDTAVYYCARWVYGLPHFDYWGQGTLVTVSS
VL: DVVMTQSPLSLPVTLGQPASISCKSSQSLLDSDGKTYLNWLQQRPGQSPRRLIYLVSKLDSGVPDRFSGSGSGTDFTLKISRVEAEDVGVYYCWQGTHRPFTFGGGTKVEIK
B7: the binding result in test [3] and in test [4] was “binds” in each case.

B8: phage display clone LB511-F11 (antibody, V domains shown)
VH: QVQLVQSGAEVKKPGASVKVSCKASGYAFSYSWMNWVRQAPGQGLEWMGRIYPENGDTNYNGKFKGRVTMTRDTSISTAYMELSRLRSDDTAVYYCARWVYGYPHFDYWGQGTLVTVSS
VL: DVVMTQSPLSLPVTLGQPASISCKSSQSLLDSDGKTYLNWLQQRPGQSPRRLIYLVSKLDSGVPDRFSGSGSGTDFTLKISRVEAEDVGVYYCWQGTHRPFTFGGGTKVEIK
Turning to B8, the binding entry in test [1] and in test [2] was “binds” each time.

B9: phage display clone LB512-A7 (antibody, V domains shown)
VH: QVQLVQSGAEVKKPGASVKVSCKASGYAFSYSWMNWVRQAPGQGLEWMGRIYPENGDTNYNGKFKGRVTMTRDTSISTAYMELSRLRSDDTAVYYCARWVYGYPHFDYWGQGTLVTVSS
VL: DVVMTQSPLSLPVTLGLPASISCKSSQSLLDSDGKTYLNWLQQRPGQSPRRLIYLVSKLDSGVPDRFSGSGSGTDFTLKISRVEAEDVGVYYCWQGTHFPFTFGGGTKVEIK
In the case of B9, the binding entry in test [1] is recorded as “binds”.

B10: affinity matured antibody LB517/PRI47 (antibody, V domains shown)
VH: QVQLVQSGAEVKKPGASVKVSCKASGYAFSYSWMNWVRQAPGQGLEWMGRIYPENGDTNYNGKFKGRVTMTRDTSISTAYMELSRLRSDDTAVYYCARWVYGLPHFDYWGQGTLVTVSS
VL: DVVMTQSPLSLPVTLGQPASISCKSSQSLLDSDGKTYLNWLQQRPGQSPRRLIYLVSKLDSGVPDRFSGSGSGTDFTLKISRVEAEDVGVYYCWQGTHFPFTFGGGTKVEIK
On to B10, for which the binding entry in test [3] and in test [4] was “binds” each time.

B11: phage display clone LB509-G2 (antibody, V domains shown)
VH: QVQLVQSGAEVKKPGASVKVSCKASGYAFSYSWMNWVRQAPGQGLEWMGRIYPENGDTNYNGKFKGRVTMTRDTSISTAYMELSRLRSDDTAVYYCARWVYGYPHLDYWGQGTLVTVSS
VL: DVVMTQSPLSLPVTLGQPASISCKSSQSLLDSDGKTYLNWLQQRPGQSPRRLIYLVSKLDSGVPDRFSGSGSGTDFTLKISRVEAEDVGVYYCWQGTHFPFTFGGGTKVEIK
With B11, the binding entry in test [1] is recorded as “binds”.

B12: phage display clone LB511-A9 (antibody, V domains shown)
VH: QVQLVQSGAEVKKPGASVKVSCKASGYAFSYSWMNWVRQAPGQGLEWMGRIYPENGDTNYNGKFKGRVTMTRDTSISTAYMELSRLRSDDTAVYYCARWVYGYPHFDYWGQGTLVTVSS
VL: DVVMTQSPLSLPVTLGQPASISCKSSQSLLDSDGKTYLNWLQQRPGQSPRRLIYLVSKLDSGVPDRFSGSGSGTDFTLKISRVEAEDVGVYYCWQGTHIPFTFGGGTKVEIK
With B12, the binding entry in test [1] and in test [2] was “binds” in each case.

B13: affinity matured antibody LB495/519 (antibody, V domains shown)
VH: QVQLVQSGAEVKKPGASVKVSCKASGYAFSYSWMNWVRQAPGQGLEWMGRIYPENGDTNYNGKFKGRVTMTRDTSISTAYMELSRLRSDDTAVYYCARWVYGYPHFDYWGQGTLVTVSS
VL: DVVMTQSPLSLPVTLGQPASISCKSSQSLLDSDGKTYLNWLQQRPGQSPRRLIYLVSKLDSGVPDRFSGSGSGTDFTLKISRVEAEDVGVYYCWQGTHLPFTFGGGTKVEIK
Consider B13, for which the binding entry in test [3] and in test [4] was “binds” in each case.

B14: affinity matured antibody LB495/520 (antibody, V domains shown)
VH: QVQLVQSGAEVKKPGASVKVSCKASGYAFSYSWMNWVRQAPGQGLEWMGRIYPENGDTNYNGKFKGRVTMTRDTSISTAYMELSRLRSDDTAVYYCARWVYGYPHFDYWGQGTLVTVSS
VL: DVVMTQSPLSLPVTLGQPASISCKSSQSLLDSDGKTYLNWLQQRPGQSPRRLIYLVSKLDSGVPDRFSGSGSGTDFTLKISRVEAEDVGVYYCWQGTHRPFTFGGGTKVEIK
Consider B14, for which the binding entry in test [3] and in test [4] was “binds” each time.

B15: phage display clone LB510-G5 (antibody, V domains shown)
VH: QVQLVQSGAEVKKPGASVKVSCKASGYAFSYSWVNWVRQAPGQGLEWMGRIYPENGDTNYNGKFKGRVTMTRDTSISTAYMELSRLRSDDTAVYYCARWVYGYPHFDYWGQGTLVTVSS
VL: DVVMTQSPLSLPVTLGQPASISCKSSQSLLDSDGKTYLNWLQQRPGQSPRRLIYLVSKLDSGVPDRFSGSGSGTDFTLKISRVEAEDVGVYYCWQGTHFPFTFGGGTKVEIK
As for B15, the binding result in test [1] was “binds”.

B16: phage display clone LB509-C2 (antibody, V domains shown)
VH: QVQLVQSGAEVKKPGASVKVSCKASGYAFSYSWMNWVRQAPGQGLEWMGRIYPENGDTNYNGKFKGRVTMTRDTSISTAYMELSRLRSDDTAVYYCARWVYGLPHFDYWGQGTLVTVSS
VL: DVVMTQSPLSLPVTLGQPASISCKSSQSLLDSDGKTYLNWLQQRPGQSPRRLIYLVSKLDSGVPDRFSGSGSGTDFTLKISRVEAEDVGVYYCWQGTHFPFTFGGGTKVEIK
For the molecule B16, the binding result in test [1] and in test [2] was “binds” in each case.

B17: engineered antibody LB631/519 (antibody, V domains shown)
VH: QVQLVQSGAEVKKPGASVKVSCKASGYAFSYSWMNWVRQAPGQGLEWMGRIYPENGDTNYAGKFKGRVTMTRDTSISTAYMELSRLRSDDTAVYYCARWVYGLPHFDYWGQGTLVTVSS
VL: DVVMTQSPLSLPVTLGQPASISCKSSQSLLDSDGKTYLNWLQQRPGQSPRRLIYLVSKLDSGVPDRFSGSGSGTDFTLKISRVEAEDVGVYYCWQGTHLPFTFGGGTKVEIK
For B17, in test [5], the binding result is given as “binds”.

B18: phage display clone LB510-C7 (antibody, V domains shown)
VH: QVQLVQSGAEVKKPGASVKVSCKASGYAFGYSWMNWVRQAPGQGLEWMGRIYPENGDTNYNGKFKGRVTMTRDTSISTAYMELSRLRSDDTAVYYCARWVYGYPHFDYWGQGTLVTVSS
VL: DVVMTQSPLSLPVTLGQPASISCKSSQSLLDSDGKTYLNWLQQRPGQSPRRLIYLVSKLDSGVPDRFSGSGSGTDFTLKISRVEAEDVGVYYCWQGTHFPFTFGGGTKVEIK
For the molecule B18, in test [1], the binding entry is given as “binds”.

B19: affinity matured antibody LB517/521 (antibody, V domains shown)
VH: QVQLVQSGAEVKKPGASVKVSCKASGYAFSYSWMNWVRQAPGQGLEWMGRIYPENGDTNYNGKFKGRVTMTRDTSISTAYMELSRLRSDDTAVYYCARWVYGLPHFDYWGQGTLVTVSS
VL: DVVMTQSPLSLPVTLGQPASISCKSSQSLLDSDGKTYLNWLQQRPGQSPRRLIYLVSKLDSGVPDRFSGSGSGTDFTLKISRVEAEDVGVYYCWQGTHVPFTFGGGTKVEIK
On to B19, for which the binding result in test [3] and in test [4] was “binds” each time.
